These are yes or no findings as the source states them, for the method shown. In cells and extracts the contact can be indirect. For part of these data: Binding can be weak; no strength is given. Where a sequence is shown, tags or fusion partners need not be part of it.

Sequences of proteins named here, by UniProt entry; tags and fusion partners are left off. A change or cut given only in a name is not applied to a line headed by its entry.
UniProt P08253: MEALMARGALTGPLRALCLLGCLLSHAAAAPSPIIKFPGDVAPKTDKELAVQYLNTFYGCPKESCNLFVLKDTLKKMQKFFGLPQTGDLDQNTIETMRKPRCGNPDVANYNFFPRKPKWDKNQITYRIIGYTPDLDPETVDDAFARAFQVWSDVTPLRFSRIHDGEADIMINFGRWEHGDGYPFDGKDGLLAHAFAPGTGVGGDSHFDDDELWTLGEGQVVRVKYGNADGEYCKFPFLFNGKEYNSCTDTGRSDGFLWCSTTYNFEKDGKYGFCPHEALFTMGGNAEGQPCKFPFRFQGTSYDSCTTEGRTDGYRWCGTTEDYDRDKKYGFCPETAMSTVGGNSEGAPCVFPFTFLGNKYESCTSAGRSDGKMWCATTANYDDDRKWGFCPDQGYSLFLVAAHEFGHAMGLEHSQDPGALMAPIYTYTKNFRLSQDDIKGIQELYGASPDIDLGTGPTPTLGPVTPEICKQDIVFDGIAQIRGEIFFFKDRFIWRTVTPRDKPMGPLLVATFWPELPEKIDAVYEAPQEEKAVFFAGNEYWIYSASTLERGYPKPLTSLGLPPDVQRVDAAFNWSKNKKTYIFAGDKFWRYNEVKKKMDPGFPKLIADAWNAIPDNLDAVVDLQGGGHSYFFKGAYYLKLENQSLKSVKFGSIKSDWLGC

The target of test [1] is T1, GP73‐c‐flag (Golgi phosphoprotein 73, from pCMV3‐GOLM1‐flag) (human) (UniProt Q8NBJ4).
T1 sequence: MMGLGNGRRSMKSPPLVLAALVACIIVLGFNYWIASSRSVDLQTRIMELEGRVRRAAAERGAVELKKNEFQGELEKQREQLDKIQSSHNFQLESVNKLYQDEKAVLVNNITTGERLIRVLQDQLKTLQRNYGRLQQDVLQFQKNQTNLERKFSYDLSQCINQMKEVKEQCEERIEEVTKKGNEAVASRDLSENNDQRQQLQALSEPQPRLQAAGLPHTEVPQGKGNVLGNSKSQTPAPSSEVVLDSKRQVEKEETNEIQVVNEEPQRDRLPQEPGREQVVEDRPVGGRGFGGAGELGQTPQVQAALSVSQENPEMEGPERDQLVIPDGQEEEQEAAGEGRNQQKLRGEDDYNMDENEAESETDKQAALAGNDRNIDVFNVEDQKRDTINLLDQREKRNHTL
The experiment in a line: co-IP; 293T cells transfected for 48 h with pCMV3‐GOLM1‐flag and pCMV‐MMP‐2‐HA; RIPA lysate; Protein A/G beads with anti‐flag antibody; immunoblot.

The target in test [2] is T2, GP73 Δ2‐12 deletion mutant with c‐flag tag (human) (UniProt Q8NBJ4).
T2 sequence: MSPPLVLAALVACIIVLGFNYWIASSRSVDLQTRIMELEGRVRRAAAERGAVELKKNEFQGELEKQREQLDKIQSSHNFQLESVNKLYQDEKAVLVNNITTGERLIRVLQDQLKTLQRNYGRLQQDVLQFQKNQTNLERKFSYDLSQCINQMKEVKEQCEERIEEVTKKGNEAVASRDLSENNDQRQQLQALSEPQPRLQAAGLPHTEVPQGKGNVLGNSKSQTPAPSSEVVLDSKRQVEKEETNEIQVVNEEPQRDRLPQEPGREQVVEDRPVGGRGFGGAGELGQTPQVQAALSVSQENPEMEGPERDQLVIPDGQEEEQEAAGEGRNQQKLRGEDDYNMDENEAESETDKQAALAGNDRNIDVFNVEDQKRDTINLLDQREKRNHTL
The experiment in a line: co-IP; flag-tagged GP73 deletion mutants and pCMV‐MMP2 cotransfected into 293T cells for 48 h; Protein A/G beads with anti‐flag antibody; immunoblot. On the technique in general: In western blotting, separated proteins are transferred to a membrane and probed.

The target of test [3] is T3, GP73 Δ5‐12 deletion mutant with c‐flag tag (human) (UniProt Q8NBJ4).
T3 sequence: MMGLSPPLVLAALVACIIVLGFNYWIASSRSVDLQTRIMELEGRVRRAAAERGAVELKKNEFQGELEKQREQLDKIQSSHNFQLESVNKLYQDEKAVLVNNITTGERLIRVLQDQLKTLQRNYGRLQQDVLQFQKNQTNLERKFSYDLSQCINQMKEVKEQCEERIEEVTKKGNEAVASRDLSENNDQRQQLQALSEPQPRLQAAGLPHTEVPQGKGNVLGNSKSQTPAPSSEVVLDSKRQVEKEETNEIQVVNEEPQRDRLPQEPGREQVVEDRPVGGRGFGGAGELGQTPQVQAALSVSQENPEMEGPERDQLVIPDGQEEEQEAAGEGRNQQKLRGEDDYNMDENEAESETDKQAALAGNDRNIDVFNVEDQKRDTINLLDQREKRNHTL
The test is described as above.

On to “MMP‐2‐c‐HA (matrix metalloproteinase‐2, from pCMV‐MMP‐2‐HA) (from UniProt P08253)”, for which the binding entry in test [1] is “binds”. Regarding “exogenous MMP‐2 (from pCMV‐MMP‐2) (from UniProt P08253)”, the binding result in test [2] and in test [3] was “no binding” throughout.
